These results are taken from PMC10656286.

Sequences of proteins named here, by UniProt entry; tags and fusion partners are left off.
UniProt O00571: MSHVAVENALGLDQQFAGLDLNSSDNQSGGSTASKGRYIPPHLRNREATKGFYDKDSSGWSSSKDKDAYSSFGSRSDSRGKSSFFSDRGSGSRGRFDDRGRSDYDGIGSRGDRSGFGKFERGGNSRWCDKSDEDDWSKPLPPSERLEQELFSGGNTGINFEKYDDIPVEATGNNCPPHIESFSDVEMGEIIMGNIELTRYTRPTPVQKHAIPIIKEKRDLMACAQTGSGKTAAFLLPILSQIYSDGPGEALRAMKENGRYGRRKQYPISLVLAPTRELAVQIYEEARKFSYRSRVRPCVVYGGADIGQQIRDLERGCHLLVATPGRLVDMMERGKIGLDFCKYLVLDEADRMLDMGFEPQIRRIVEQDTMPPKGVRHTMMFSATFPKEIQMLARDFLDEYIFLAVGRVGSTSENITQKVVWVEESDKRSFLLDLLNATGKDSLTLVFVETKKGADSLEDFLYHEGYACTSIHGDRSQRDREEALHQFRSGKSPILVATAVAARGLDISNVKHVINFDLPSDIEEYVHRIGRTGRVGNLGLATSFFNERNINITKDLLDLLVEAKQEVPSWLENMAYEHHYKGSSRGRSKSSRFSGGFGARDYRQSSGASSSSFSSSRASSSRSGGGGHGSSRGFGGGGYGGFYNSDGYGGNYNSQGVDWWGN

One assay addresses Flag-KLHL29 (UniProt Q96CT2). Description: co-IP; HEK293T cells transfected with tagged plasmids; whole-cell lysates immunoprecipitated with anti-tag antibody (anti-Flag or anti-Myc), western blotting. For orientation: A western blot detects proteins with antibodies after separation by electrophoresis.
The target in assay [1] is T1, Flag-KLHL29 fragment M4 (Kelch domain, amino acids 585-875) (UniProt Q96CT2).
T1 sequence: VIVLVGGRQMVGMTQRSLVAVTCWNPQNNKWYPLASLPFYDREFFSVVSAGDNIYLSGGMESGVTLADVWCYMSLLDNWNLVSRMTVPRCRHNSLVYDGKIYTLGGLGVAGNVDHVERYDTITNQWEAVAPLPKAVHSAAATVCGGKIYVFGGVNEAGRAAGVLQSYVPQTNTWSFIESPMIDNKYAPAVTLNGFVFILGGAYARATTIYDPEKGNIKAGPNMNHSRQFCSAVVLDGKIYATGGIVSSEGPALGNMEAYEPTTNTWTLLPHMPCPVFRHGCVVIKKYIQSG
The description is as above.

Assay [2] addresses KLHL29 (endogenous, MDA-MB-231) (human (endogenous in MDA-MB-231)) (UniProt Q96CT2). Description: co-IP; endogenous proteins in MDA-MB-231 cells.

No constants are given. Whether binding was seen depends on the method and setting. Binding seen in cells or lysates may run through a third protein. Some entries that bind do so weakly or less than the wild type. For part of these data: Where a sequence is shown, tags or fusion partners need not be part of it.

Consider Myc-DDX3X (from UniProt O00571 1-662), for which the binding entry (with Flag-KLHL29; in assay [1]) was “binds” in each case.

In the case of “DDX3X (endogenous, MDA-MB-231) (from UniProt O00571 1-662)”, the binding result in assay [2] is reported as “binds”.
